Measurements from paper PMC13393275.
Results are given in words; binding and its absence hold for the method and conditions named. Binding seen in cells or lysates may run through a third protein. Some entries that bind do so weakly or less than the wild type. For some assays here: Where a sequence is shown, tags or fusion partners need not be part of it.

The chains behind the UniProt entries cited, without tags or fusion partners.
UniProt Q9Y6W5: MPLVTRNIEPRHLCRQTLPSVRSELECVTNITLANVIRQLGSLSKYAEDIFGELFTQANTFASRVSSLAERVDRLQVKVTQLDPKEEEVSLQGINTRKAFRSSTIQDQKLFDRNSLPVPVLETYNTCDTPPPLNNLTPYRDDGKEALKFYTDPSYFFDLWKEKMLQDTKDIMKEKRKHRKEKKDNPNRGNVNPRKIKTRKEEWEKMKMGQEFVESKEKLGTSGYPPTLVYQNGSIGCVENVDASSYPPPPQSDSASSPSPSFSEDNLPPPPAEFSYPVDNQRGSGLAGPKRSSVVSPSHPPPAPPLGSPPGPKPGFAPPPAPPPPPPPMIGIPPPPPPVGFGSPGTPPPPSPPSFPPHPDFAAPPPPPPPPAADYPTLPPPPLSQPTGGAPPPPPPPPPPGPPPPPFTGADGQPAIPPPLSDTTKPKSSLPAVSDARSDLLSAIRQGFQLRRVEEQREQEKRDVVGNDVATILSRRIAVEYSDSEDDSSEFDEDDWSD

T1: FRS2-mNeonGreen (human) (UniProt Q8WU20)
T1 sequence: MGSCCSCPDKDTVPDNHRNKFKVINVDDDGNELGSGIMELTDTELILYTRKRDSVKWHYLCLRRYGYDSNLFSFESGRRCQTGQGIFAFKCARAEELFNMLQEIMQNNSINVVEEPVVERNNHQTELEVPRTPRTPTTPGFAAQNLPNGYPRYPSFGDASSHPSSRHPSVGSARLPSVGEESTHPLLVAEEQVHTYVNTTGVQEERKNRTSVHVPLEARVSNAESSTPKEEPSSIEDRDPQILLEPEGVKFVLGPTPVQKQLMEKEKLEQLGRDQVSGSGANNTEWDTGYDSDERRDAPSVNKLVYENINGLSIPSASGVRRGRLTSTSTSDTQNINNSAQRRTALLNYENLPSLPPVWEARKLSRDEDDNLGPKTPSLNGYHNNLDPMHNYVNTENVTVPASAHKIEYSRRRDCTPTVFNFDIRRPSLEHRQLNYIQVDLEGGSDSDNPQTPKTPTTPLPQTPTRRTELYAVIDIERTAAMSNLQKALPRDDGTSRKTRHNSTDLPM

T2: biotinylated FGFR peptide
T2 sequence (peptide, biotin on the N-terminus): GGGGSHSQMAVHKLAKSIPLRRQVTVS


Key:
FRS2-mNeonGreen (human) = biological target: T1, FRS2-mNeonGreen (human); assay: co-IP; mNeonGreen-Trap magnetic agarose on lysates of UW228 FRS2-mNG/mCherry-Nuc cells (UW228 WT as control), serum-starved, with or without 50 ng/mL bFGF for 5 min; lysis in 10 mM Tris, 150 mM NaCl, 0.5 mM EDTA, 0.25% NP-40, pH 7.5; 90 min at 4 C; immunoblot of the eluate
[1] = biological target: T2, biotinylated FGFR peptide; assay: pull-down; biotinylated FGFR peptide on streptavidin Dynabeads, incubated with cell lysates 90 min at 4 C and 90 min at RT; immunoblot of eluates; only the target purified

Molecule | binding (FRS2-mNeonGreen (human)) | binding [1]
Actin-binding protein WASF2 (from UniProt Q9Y6W5 1-498) | binds | 
FRS2-APEX2-V5 (protein, UniProt Q8WU20 1-508) MGSCCSCPDKDTVPDNHRNKFKVINVDDDGNELGSGIMELTDTELILYTRKRDSVKWHYLCLRRYGYDSNLFSFESGRRCQTGQGIFAFKCARAEELFNMLQEIMQNNSINVVEEPVVERNNHQTELEVPRTPRTPTTPGFAAQNLPNGYPRYPSFGDASSHPSSRHPSVGSARLPSVGEESTHPLLVAEEQVHTYVNTTGVQEERKNRTSVHVPLEARVSNAESSTPKEEPSSIEDRDPQILLEPEGVKFVLGPTPVQKQLMEKEKLEQLGRDQVSGSGANNTEWDTGYDSDERRDAPSVNKLVYENINGLSIPSASGVRRGRLTSTSTSDTQNINNSAQRRTALLNYENLPSLPPVWEARKLSRDEDDNLGPKTPSLNGYHNNLDPMHNYVNTENVTVPASAHKIEYSRRRDCTPTVFNFDIRRPSLEHRQLNYIQVDLEGGSDSDNPQTPKTPTTPLPQTPTRRTELYAVIDIERTAAMSNLQKALPRDDGTSRKTRHNSTDLPM |  | binds
